SMILES strings stand for the structures. The list shows only some results of the screen, not a fair sample: it gathers tests that were run many times, whatever their T/C, doses with no T/C, and many T/C values between a quarter and a half above the control. Further doses and runs are listed elsewhere. T/C: endpoint of the treated group in % of that of the vehicle group. Some entries give survivors of the animals treated and no T/C: the source holds a T/C of zero for them, seemingly a mark for toxic or unscored doses. Some survivor counts are full or nearly so, which does not show that the dose was tolerated: the source hardly ever lists a survival T/C far under the control, and the zero likely stands for such cases as well. Counts of survivors are from the toxicity check (mostly the fifth day) where no day follows; animals may have died later. Schedule codes are those of the source, read here as Q, the interval in days (D) or hours (H), X, the number of doses. Some entries hold several experiments; the results are listed from low to high. Where survival is the endpoint, this PubChem deposit counts one and a half times the control or more as active, and values a quarter to a half above the control carry no call in these data; other NCI protocols may use other cut-offs. Some T/C values are followed by the survivors on the day toxicity was checked, most often the fifth; without a count, all were alive then. Marks such as (2×) give the number of equal values in this list.

This test concerns AKR/Lw mice, AKR lymphoma ip, median survival T/C. The experiment in a line: NCI In Vivo Anticancer Drug Screen. Data for tumor model Lymphoma AKR (Transplanted) (intraperitoneal) in AKR/Lw mice. Conditions: T/C endpoint: median survival time, higher T/C = longer survival. As to the method:
The antitumor activity of compounds was measured in mice bearing transplantable tumors. Survival or tumor size were measured and the results are expressed as the measurement made in the treated group (T) divided by the measurement made in the vehicle treated control group (C). The tumor model used in this assay is Lymphoma AKR (Transplanted) (intraperitoneal) in AKR/Lw mice

The mark [1] stands for this setting: dose: 300.0 mg/kg/injection, schedule: Q06HX016 (ip), vehicle: saline.
Setting [2] is: dose: 450.0 mg/kg/injection, schedule: Q06HX016 (ip), vehicle: saline.
[3] abbreviates: dose: 675.0 mg/kg/injection, schedule: Q06HX016 (ip), vehicle: saline.
Setting [4] is: dose: 1000.0 mg/kg/injection, schedule: Q06HX016 (ip), vehicle: saline.
The mark [5] stands for this setting: dose: 15.0 mg/kg/injection, schedule: Q01DX009 (ip), vehicle: saline.
[6] abbreviates: dose: 25.0 mg/kg/injection, schedule: Q01DX009 (ip), vehicle: saline.
Setting [7] is: dose: 50.0 mg/kg/injection, schedule: Q01DX009 (ip), vehicle: saline.
[8] abbreviates: dose: 100.0 mg/kg/injection, schedule: Q01DX009 (ip), vehicle: saline.
[9] abbreviates: dose: 400.0 mg/kg/injection, schedule: Q01DX001 (ip), vehicle: saline.
Where [10] appears, read: dose: 400.0 mg/kg/injection, schedule: Q04DX003 (ip), vehicle: saline.
Where [11] appears, read: dose: 600.0 mg/kg/injection, schedule: Q01DX001 (ip), vehicle: saline.
The mark [12] stands for this setting: dose: 200.0 mg/kg/injection, schedule: Q01DX001 (ip), vehicle: Klucel (hydroxypropylcellulose) (HPC).
The mark [13] stands for this setting: dose: 400.0 mg/kg/injection, schedule: Q01DX001 (ip), vehicle: Klucel (hydroxypropylcellulose) (HPC).

Consider `Nc1n[nH]c(N)n1`, for which the survivor count is given as 3 of 10 (dose: 37.5 mg/kg/injection, schedule: Q06HX008 (ip), vehicle: saline); 10 of 10 (dose: 125.0 mg/kg/injection, schedule: Q06HX004 (ip), vehicle: saline); 10 of 10 under setting [1]; 10 of 10 under setting [2]; 9 of 10 (dose: 500.0 mg/kg/injection, schedule: Q06HX004 (ip), vehicle: saline); 9 of 10 (dose: 600.0 mg/kg/injection, schedule: Q01DX009 (ip), vehicle: saline). For the same compound, the survivor count is 9 of 10 under setting [3]; 10 of 10 (dose: 1000.0 mg/kg/injection, schedule: Q06HX012 (ip), vehicle: saline); 3 of 10 and 9 of 10 under setting [4]. For the same compound, the T/C runs as follows: under setting [1], 87, 100, 103 % of control [9 of 10 alive]; (dose: 450.0 mg/kg/injection, schedule: Q01DX010 (ip), vehicle: saline) 145 % of control; under setting [2], 93 and 112 % of control; (dose: 675.0 mg/kg/injection, schedule: Q06HX008 (ip), vehicle: saline) 126 % of control; under setting [3], 93 [8 of 10 alive] and 100 % of control [9 of 10 alive]; (dose: 800.0 mg/kg/injection, schedule: Q04DX003 (ip), vehicle: saline) 126 % of control. The T/C is, setting by setting: (dose: 1000.0 mg/kg/injection, schedule: Q04DX003 (ip), vehicle: saline) 131 % of control; under setting [4], 93 % of control [8 of 10 alive]; (dose: 1400.0 mg/kg/injection, schedule: Q04DX003 (ip), vehicle: saline) 125 % of control.

`CC(CN1CC(=O)NC(=O)C1)N1CC(=O)NC(=O)C1` (stereo unspecified): the T/C was 131 % of control [9 of 10 alive] (dose: 1.0 mg/kg/injection, schedule: Q01DX009 (ip), vehicle: saline); 110, 113, 116, 120 % of control (dose: 6.2 mg/kg/injection, schedule: Q01DX009 (ip), vehicle: saline); 133 and 140 % of control (dose: 10.0 mg/kg/injection, schedule: Q01DX009 (ip), vehicle: saline); 88, 120 (2×), 131, 133, 147 % of control (dose: 12.5 mg/kg/injection, schedule: Q01DX009 (ip), vehicle: saline); 131 % of control [9 of 10 alive] under setting [5]; 113, 123, 129 [9 of 10 alive], 130, 134, 135 % of control under setting [6]. Further, the T/C is, setting by setting: (dose: 40.0 mg/kg/injection, schedule: Q01DX009 (ip), vehicle: saline) 141 % of control; under setting [7], 105, 136, 141, 158 % of control; (dose: 50.0 mg/kg/injection, schedule: Q04DX003 (ip), vehicle: saline) 128 % of control; (dose: 100.0 mg/kg/injection, schedule: Q01DX001 (ip), vehicle: saline) 94, 106, 110 [9 of 10 alive], 117 % of control; under setting [8], 128 and 150 % of control; (dose: 100.0 mg/kg/injection, schedule: Q04DX003 (ip), vehicle: saline) 89 [7 of 10 alive], 97, 104, 105, 122 % of control. Moreover, the T/C by setting is: (dose: 150.0 mg/kg/injection, schedule: Q01DX001 (ip), vehicle: saline) 106, 116, 117, 122 % of control; (dose: 200.0 mg/kg/injection, schedule: Q01DX001 (ip), vehicle: saline) 93, 111, 121, 126 % of control; (dose: 200.0 mg/kg/injection, schedule: Q04DX003 (ip), vehicle: saline) 91, 107, 120, 133, 197 % of control; (dose: 300.0 mg/kg/injection, schedule: Q01DX001 (ip), vehicle: saline) 116, 118, 120, 129 % of control; (dose: 300.0 mg/kg/injection, schedule: Q01DX001 (ip), vehicle: water) 127 % of control; under setting [9], 105 [8 of 10 alive], 106, 182 % of control. Also, the T/C was 89 [9 of 10 alive], 100, 129 % of control under setting [10]; 87 [7 of 10 alive] and 131 % of control under setting [11]. In addition, the survivor count was 9 of 10 under setting [5]; 9 of 10 and 10 of 10 under setting [6]; 8 of 10 (dose: 35.0 mg/kg/injection, schedule: Q01DX009 (ip), vehicle: saline); 10 of 10 under setting [7]; 10 of 10 under setting [8]; 10 of 10 (dose: 200.0 mg/kg/injection, schedule: Q01DX009 (ip), vehicle: saline). Further, the survivor count is 9 of 10 under setting [9]; 8 of 10 and 9 of 10 under setting [10]; 3 of 10, 8 of 10, 9 of 10 under setting [11]; 10 of 10 (dose: 700.0 mg/kg/injection, schedule: Q01DX001 (ip), vehicle: saline); 5 of 10 (dose: 800.0 mg/kg/injection, schedule: Q01DX001 (ip), vehicle: saline).

As for `C/C=C(/C)N(C(C)=O)N(C(C)=O)c1ccc([N+](=O)[O-])cc1[N+](=O)[O-]`, the survivor count is, setting by setting: (dose: 100.0 mg/kg/injection, schedule: Q04DX003 (ip), vehicle: Klucel (hydroxypropylcellulose) (HPC)) 8 of 10; (dose: 400.0 mg/kg/injection, schedule: Q04DX003 (ip), vehicle: Klucel (hydroxypropylcellulose) (HPC)) 10 of 10.

`CCCCCCCCCCCCCCCC(=O)N(CCC#N)CCCCCCCCCN(CCC#N)C(=O)CCCCCCCCCCCCCCC`: the survivor count (dose: 50.0 mg/kg/injection, schedule: Q04DX003 (ip), vehicle: other) is 10 of 10; the survivor count (dose: 100.0 mg/kg/injection, schedule: Q04DX003 (ip), vehicle: other) is given as 10 of 10; the survivor count (dose: 200.0 mg/kg/injection, schedule: Q04DX003 (ip), vehicle: other) is 10 of 10; the survivor count under setting [9] is on record as 9 of 10.

As for `CC(=O)CC(=O)Nc1ccc([N+](=O)[O-])cc1`, where the note is “dose: 200.0 mg/kg/injection, schedule: Q01DX001 (ip), vehicle: saline with Tween-80”, the survivor count was 9 of 10.

In the case of `COc1cc2c(cc1OC)C1CCN3CCCC3N1CC2` (stereo unspecified), the survivor count by setting is: under setting [12], 7 of 10; under setting [13], 0 of 10.

Consider `Nc1ccccc1SC1CC(=O)N(c2ccc(I)cc2)C1=O` (stereo unspecified), for which the survivor count was 10 of 10 (dose: 50.0 mg/kg/injection, schedule: Q04DX003 (ip), vehicle: Klucel (hydroxypropylcellulose) (HPC)); 10 of 10 under setting [12]; 10 of 10 under setting [13].

The values are drawn from PubChem BioAssay AID190 (DTP/NCI, 2004).
